The list shows a part of the results.
Each target was assayed with CNC(=O)C1=CC=CC=C1NC2=NC(=NC=C2Cl)NC3=C(C=C(C=C3)N4CCOCC4)OC (assay: log2 fold change, soluble protein after heating vs DMSO (PISA); higher = thermal stabilisation; K562 lysate, 10 uM; active = over 0.2 and 3.5 SD of the protein, either way, in both replicates (recomputed)).
In short: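 The values are log-two fold changes in thermal stability compared with solvent controls and come from duplicates. They were obtained by TMTpro 16plex LC-MS/MS, with channel sums equalised, on the supernatant after 21,000xg for 90 min. That supernatant came from crude K562 extract at 1 mg/mL protein treated with 10 μM compound for 30 min, heated for 3 min across 48°C-58°C, pooled and brought to 0.5% NP-40 at 4°C.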

The chains behind the UniProt entries cited, without tags or fusion partners. Where a name states a change or a piece, a line headed by the entry shows the natural chain unless it says otherwise.
UniProt Q9NVV0: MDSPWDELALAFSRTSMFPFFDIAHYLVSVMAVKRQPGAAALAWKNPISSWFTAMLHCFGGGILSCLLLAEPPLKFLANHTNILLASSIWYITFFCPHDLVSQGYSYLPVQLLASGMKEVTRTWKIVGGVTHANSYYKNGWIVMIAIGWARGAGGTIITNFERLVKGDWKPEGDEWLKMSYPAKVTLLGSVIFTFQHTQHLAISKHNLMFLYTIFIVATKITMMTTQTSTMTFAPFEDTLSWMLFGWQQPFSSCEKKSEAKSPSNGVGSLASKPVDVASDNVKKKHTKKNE
UniProt Q9NS69: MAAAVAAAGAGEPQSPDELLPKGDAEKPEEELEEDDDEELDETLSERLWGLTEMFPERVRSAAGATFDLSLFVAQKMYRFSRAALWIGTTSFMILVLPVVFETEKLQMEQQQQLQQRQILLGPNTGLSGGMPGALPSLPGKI
UniProt P09493, whole entry, looked up: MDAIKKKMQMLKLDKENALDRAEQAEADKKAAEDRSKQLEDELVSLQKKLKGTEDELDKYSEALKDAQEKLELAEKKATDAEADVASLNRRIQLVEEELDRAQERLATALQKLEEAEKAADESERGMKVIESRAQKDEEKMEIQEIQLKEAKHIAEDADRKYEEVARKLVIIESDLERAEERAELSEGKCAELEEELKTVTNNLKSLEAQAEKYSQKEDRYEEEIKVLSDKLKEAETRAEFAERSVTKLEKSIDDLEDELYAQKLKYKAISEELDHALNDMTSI
UniProt O60784, whole entry, looked up: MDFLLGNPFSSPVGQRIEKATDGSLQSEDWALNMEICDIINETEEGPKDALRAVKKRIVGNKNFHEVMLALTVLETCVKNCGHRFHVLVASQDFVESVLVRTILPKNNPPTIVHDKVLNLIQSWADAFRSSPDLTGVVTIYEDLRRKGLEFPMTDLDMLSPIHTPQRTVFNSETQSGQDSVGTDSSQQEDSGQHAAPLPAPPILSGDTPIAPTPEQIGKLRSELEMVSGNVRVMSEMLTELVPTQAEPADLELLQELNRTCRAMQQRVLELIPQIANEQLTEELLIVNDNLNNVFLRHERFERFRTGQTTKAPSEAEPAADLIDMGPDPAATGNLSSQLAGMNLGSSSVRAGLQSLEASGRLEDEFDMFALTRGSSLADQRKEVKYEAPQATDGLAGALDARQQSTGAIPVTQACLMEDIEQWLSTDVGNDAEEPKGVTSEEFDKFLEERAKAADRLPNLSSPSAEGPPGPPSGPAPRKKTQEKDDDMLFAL
UniProt Q96MH6: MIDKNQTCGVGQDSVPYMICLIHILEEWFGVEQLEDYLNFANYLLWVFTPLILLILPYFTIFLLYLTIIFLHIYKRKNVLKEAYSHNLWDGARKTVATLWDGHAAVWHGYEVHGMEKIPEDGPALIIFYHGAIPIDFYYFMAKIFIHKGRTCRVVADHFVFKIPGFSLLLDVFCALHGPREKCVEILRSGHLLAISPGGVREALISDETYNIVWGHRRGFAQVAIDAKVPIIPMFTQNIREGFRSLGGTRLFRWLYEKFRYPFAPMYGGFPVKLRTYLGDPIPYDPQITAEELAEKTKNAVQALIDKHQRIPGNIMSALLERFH
UniProt P06753, whole entry, looked up: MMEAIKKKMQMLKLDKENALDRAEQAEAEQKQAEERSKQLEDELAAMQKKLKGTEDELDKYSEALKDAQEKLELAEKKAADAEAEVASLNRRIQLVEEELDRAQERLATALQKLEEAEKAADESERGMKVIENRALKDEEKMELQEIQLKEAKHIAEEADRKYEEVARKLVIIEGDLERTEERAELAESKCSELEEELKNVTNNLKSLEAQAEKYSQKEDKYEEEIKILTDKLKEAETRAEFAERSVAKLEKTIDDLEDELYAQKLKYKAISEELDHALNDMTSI
UniProt Q9ULW0, whole entry, looked up: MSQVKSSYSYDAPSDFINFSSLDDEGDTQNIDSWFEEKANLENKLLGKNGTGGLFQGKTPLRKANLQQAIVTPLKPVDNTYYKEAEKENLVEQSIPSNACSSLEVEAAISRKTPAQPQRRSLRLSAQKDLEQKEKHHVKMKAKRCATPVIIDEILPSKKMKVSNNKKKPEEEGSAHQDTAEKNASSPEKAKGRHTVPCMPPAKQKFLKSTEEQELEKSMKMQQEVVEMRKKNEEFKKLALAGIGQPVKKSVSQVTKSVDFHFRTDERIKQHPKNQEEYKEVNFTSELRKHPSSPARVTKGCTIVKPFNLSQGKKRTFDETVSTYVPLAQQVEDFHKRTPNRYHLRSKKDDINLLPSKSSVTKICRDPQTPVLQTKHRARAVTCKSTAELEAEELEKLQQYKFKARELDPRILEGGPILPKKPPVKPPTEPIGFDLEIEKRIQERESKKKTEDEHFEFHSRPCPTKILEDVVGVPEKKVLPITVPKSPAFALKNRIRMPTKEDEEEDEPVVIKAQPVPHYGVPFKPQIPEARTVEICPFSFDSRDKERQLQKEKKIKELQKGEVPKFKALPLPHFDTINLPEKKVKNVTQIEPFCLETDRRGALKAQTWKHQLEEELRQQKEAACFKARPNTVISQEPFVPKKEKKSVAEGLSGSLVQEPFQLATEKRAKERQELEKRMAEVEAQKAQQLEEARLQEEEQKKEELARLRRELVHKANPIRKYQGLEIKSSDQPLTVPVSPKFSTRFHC
UniProt P11387: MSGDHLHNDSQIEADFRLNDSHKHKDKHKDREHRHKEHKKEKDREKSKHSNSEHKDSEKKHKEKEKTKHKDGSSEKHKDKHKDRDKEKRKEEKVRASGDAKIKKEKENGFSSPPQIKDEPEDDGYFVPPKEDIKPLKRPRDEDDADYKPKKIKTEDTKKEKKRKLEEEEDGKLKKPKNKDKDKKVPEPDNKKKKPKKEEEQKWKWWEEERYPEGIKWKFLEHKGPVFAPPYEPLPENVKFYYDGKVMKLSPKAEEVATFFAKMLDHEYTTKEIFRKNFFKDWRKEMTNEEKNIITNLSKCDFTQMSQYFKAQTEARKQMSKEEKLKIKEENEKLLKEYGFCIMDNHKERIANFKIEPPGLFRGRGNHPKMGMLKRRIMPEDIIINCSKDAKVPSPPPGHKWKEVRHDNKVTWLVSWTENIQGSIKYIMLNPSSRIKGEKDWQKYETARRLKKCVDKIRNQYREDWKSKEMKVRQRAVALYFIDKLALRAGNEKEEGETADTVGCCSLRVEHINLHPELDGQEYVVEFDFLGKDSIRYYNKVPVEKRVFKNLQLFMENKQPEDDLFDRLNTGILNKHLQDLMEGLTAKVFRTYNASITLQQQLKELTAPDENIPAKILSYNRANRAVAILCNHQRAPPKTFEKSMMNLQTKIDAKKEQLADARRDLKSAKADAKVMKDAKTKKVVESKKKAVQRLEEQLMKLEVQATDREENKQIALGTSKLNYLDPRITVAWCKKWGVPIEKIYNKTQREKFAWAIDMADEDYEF
UniProt O94826, whole entry, looked up: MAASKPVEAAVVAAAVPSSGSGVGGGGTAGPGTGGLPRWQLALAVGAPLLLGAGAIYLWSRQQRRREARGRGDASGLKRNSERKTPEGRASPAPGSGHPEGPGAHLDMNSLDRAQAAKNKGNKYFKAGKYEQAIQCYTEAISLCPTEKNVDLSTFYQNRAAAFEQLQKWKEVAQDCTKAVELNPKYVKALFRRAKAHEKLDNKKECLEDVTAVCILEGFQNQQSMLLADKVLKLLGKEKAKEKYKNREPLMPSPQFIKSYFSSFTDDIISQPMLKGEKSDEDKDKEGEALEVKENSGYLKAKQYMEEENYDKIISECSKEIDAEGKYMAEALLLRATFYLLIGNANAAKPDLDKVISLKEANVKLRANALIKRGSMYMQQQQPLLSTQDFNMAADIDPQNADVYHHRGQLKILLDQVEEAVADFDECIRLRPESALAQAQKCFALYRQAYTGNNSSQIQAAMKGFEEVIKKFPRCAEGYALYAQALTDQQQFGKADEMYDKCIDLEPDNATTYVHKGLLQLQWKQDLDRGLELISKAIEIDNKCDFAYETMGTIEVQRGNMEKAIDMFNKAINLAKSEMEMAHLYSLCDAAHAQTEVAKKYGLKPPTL
UniProt Q86XT9, whole entry, looked up: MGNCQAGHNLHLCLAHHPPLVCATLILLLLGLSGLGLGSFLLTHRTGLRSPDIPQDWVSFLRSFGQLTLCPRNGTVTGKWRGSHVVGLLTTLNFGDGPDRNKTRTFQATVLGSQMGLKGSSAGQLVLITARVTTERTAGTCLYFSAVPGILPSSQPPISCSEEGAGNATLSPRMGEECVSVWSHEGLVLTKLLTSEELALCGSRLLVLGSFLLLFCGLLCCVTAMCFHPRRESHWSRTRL
UniProt Q53FA7: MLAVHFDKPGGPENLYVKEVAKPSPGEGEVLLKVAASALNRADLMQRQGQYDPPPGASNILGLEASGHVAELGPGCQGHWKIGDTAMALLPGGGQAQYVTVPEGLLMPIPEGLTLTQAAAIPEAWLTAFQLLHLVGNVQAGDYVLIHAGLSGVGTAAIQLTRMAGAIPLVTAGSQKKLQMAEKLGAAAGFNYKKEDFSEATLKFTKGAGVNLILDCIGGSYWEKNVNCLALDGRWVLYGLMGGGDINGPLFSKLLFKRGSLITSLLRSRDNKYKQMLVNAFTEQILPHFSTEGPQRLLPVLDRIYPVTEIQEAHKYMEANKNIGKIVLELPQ
UniProt Q02880: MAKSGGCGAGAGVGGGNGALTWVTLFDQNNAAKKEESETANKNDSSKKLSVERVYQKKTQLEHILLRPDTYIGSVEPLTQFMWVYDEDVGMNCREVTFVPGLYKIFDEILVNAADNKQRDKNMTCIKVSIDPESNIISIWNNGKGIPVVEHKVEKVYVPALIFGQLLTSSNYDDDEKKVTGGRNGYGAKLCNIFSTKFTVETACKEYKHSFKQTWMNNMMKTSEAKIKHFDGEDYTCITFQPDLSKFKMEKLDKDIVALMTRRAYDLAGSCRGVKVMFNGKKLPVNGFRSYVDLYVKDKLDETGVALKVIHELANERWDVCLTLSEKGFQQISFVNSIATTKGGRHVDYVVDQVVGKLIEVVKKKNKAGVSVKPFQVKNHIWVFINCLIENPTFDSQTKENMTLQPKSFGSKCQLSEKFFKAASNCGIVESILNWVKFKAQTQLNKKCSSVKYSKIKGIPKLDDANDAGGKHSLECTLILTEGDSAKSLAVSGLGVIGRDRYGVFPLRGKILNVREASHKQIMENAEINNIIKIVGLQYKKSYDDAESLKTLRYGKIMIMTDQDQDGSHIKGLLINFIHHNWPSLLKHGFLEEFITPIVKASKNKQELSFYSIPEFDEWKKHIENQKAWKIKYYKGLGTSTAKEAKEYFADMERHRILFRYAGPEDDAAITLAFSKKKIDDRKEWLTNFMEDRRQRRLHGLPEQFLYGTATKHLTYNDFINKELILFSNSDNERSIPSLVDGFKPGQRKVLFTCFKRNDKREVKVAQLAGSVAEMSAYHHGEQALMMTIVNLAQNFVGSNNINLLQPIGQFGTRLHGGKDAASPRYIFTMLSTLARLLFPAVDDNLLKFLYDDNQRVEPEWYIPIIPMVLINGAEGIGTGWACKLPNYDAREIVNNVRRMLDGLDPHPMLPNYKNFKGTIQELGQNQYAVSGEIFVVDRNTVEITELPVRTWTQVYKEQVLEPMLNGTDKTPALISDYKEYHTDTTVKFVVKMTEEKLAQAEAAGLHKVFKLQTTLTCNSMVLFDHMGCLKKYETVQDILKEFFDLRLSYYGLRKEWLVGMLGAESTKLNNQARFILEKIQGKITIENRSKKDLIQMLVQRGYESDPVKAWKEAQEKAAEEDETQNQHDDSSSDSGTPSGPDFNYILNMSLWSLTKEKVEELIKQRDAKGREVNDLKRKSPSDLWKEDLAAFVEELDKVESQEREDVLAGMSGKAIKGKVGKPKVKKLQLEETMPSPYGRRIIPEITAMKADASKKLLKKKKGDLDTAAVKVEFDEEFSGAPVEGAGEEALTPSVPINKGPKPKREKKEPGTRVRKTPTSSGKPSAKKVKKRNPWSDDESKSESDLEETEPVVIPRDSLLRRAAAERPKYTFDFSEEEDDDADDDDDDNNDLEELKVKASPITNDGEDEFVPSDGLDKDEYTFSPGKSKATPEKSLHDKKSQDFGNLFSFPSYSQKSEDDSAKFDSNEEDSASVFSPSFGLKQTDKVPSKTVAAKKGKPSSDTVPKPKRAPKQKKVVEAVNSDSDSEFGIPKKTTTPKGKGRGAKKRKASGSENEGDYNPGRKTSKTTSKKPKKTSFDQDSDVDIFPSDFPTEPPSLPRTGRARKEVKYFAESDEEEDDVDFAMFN
UniProt P28289: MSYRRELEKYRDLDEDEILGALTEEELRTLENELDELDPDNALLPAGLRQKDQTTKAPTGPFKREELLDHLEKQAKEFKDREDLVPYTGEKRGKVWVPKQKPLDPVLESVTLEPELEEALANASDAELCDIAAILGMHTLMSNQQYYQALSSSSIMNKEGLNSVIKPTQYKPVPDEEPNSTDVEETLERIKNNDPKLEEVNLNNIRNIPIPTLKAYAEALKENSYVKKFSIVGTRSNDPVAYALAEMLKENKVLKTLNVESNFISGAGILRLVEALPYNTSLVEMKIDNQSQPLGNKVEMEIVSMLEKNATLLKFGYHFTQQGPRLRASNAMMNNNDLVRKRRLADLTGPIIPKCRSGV

log2 fold change, inactive:
TMX3 (UniProt Q96JJ7) -0.013
TOR3A (UniProt Q9H497) 0.004
TMEM63B (UniProt Q5T3F8) -0.019
TPP2 (UniProt P29144) -0.014
TPP1 (UniProt O14773) 0.01
TNIK isoform 4 (UniProt Q9UKE5) 0.085
TPD52L2 isoform 7 (UniProt O43399) -0.005
TMEM38B (UniProt Q9NVV0) -0.017
TRA2A (UniProt Q13595) -0.033
TOMM22 (UniProt Q9NS69) 0.005
TPM1 isoform 4 (UniProt P09493) -0.013
TOM1 isoform 2 (UniProt O60784) 0.006
TMOD3 (UniProt Q9NYL9) 0.01
TMEM97 (UniProt Q5BJF2) -0.016
TMEM68 (UniProt Q96MH6) 0.041
TPM3 isoform 2 (UniProt P06753) -0.012
TPX2 (UniProt Q9ULW0) 0.014
TOP1 (UniProt P11387) -0.046
TNIP1 (UniProt Q15025) -0.002
TOMM70 (UniProt O94826) 0.035
TMEM219 (UniProt Q86XT9) 0.069
TPMT (UniProt P51580) -0.022
TP53I3 (UniProt Q53FA7) -0.014
TPST2 (UniProt O60704) 0.041
TOP2B isoform 2 (UniProt Q02880) 0.042
TPM3 (UniProt P06753) -0.015
TPM4 isoform 2 (UniProt P67936) -0.027
TPI1 (UniProt P60174) 0.016
TMEM87B (UniProt Q96K49) -0.035
TNFRSF1B (UniProt P20333) 0.016
TMEM245 (UniProt Q9H330) -0.03
TONSL (UniProt Q96HA7) -0.004
TMOD1 (UniProt P28289) 0.042

No new results follow: an excerpt of the list.
log2 fold change, inactive:
TPX2 (UniProt Q9ULW0) 0.014
TOP1 (UniProt P11387) -0.046

— the supplement of paper PMC10849652
